# Values quoted from earlier work, collected in article PMC3951241 (Journal of medicinal chemistry, 2013).
# The chains behind the UniProt entries cited, without tags or fusion partners. Residues count along the entry.
# UniProt P62813, 28-455: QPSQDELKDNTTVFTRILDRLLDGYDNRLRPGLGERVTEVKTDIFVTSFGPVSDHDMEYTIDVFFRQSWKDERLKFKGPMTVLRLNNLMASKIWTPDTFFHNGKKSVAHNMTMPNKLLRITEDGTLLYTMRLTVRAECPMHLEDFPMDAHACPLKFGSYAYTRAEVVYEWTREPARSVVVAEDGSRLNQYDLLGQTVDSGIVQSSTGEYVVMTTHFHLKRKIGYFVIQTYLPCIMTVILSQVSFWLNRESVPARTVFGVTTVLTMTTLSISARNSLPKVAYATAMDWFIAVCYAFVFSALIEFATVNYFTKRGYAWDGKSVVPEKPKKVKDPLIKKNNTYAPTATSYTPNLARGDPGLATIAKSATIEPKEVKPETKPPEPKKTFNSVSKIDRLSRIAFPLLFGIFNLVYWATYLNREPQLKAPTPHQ
# UniProt P63138, 26-474: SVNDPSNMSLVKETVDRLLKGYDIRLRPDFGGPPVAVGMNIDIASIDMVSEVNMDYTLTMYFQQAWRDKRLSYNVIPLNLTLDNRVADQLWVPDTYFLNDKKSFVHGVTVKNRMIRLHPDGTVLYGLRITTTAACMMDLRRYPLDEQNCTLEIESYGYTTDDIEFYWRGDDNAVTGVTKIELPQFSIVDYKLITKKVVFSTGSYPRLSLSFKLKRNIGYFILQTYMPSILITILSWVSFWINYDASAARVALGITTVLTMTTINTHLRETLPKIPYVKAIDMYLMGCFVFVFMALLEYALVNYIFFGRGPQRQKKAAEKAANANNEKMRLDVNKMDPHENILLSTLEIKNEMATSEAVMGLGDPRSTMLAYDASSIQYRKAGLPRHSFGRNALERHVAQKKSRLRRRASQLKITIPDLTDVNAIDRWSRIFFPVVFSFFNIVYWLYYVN
# Target: rat α1β2γ2L type GABAA receptors expressed in Xenopus laevis oocytes (Rattus norvegicus, UniProt P62813+P63138)
# Conditions: 1 μM compound, 2 μM GABA; literature values ref 48; cited from earlier work
smiles,measurement,value
"CC(=O)[C@H]1CC[C@H]2[C@@H]3CC[C@H]4C[C@H](O)CC[C@]4(C)[C@H]3C(=O)C[C@]12C [compound 6, alphaxalone]","oocyte electrophysiology 1 μM, ratio of currents in presence/absence of compound",4.70 ± 1.11
